PMC4467191
Where a chain is given by its changes, count along the chain named. Numbers in names are those of the source. These are yes or no findings as the source states them, for the method shown. Some results given as binding are weak or reduced against the parent protein; the word gives no strength.

What was measured:
Test in all cases: native gel or EMSA; Blue Native PAGE (supplementary Fig. S2F); oligomer bands marked by open arrowheads, higher-order oligomers or aggregates by solid arrowheads; sample and conditions not told in the text shown
[1] = target: human Pex11pβ (wild type) (human) (UniProt O96011)
human Pex11pα (human) = human Pex11pα (human) (UniProt O75192)
human Pex11pγ (human) = human Pex11pγ (human) (UniProt Q96HA9)
[2] = target: human Pex11pβ-P (L59P, D66P) (human) (UniProt O96011)
[3] = target: human Pex11pβ-φ (L58E, L61E, A65E) (human) (UniProt O96011)

B1: human Pex11pβ (wild type) (protein, UniProt O96011 1-259)
chain: MDAWVRFSAQSQARERLCRAAQYACSLLGHALQRHGASPELQKQIRQLESHLSLGRKLLRLGNSADALESAKRAVHLSDVVLRFCITVSHLNRALYFACDNVLWAGKSGLAPRVDQEKWAQRSFRYYLFSLIMNLSRDAYEIRLLMEQESSACSRRLKGSGGGVPGGSETGGLGGPGTPGGGLPQLALKLRLQVLLLARVLRGHPPLLLDVVRNACDLFIPLDKLGLWRCGPGIVGLCGLVSSILSILTLIYPWLRLKP
binding [1]: binds

B2: human Pex11pα (protein, UniProt O75192 1-247)
chain: MDAFTRFTNQTQGRDRLFRATQYTCMLLRYLLEPKAGKEKVVMKLKKLESSVSTGRKWFRLGNVVHAIQATEQSIHATDLVPRLCLTLANLNRVIYFICDTILWVRSVGLTSGINKEKWRTRAAHHYYYSLLLSLVRDLYEISLQMKRVTCDRAKKEKSASQDPLWFSVAEEETEWLQSFLLLLFRSLKQHPPLLLDTVKNLCDILNPLDQLGIYKSNPGIIGLGGLVSSIAGMITVAYPQMKLKTR
binding (human Pex11pα (human)): binds

B3: human Pex11pγ (protein, UniProt Q96HA9 1-241)
chain: MASLSGLASALESYRGRDRLIRVLGYCCQLVGGVLVEQCPARSEVGTRLLVVSTQLSHCRTILRLFDDLAMFVYTKQYGLGAQEEDAFVRCVSVLGNLADQLYYPCEHVAWAADARVLHVDSSRWWTLSTTLWALSLLLGVARSLWMLLKLRQRLRSPTAPFTSPLPRGKRRAMEAQMQSEALSLLSNLADLANAVHWLPRGVLWAGRFPPWLVGLMGTISSILSMYQAARAGGQAEATTP
binding (human Pex11pγ (human)): binds

B4: human Pex11pβ-P (L59P, D66P) (protein, UniProt O96011 1-259)
chain: B1 chain with L59P, D66P
binding [2]: binds

B5: human Pex11pβ-φ (L58E, L61E, A65E) (protein, UniProt O96011 1-259)
chain: B1 chain with L58E, L61E, A65E
binding [3]: binds
